# Laboratory results as given in paper PMC8458385.
# Amino acid sequences for entries named in this document (tags omitted). A change or cut given only in a name is not applied to a line headed by its entry.
# UniProt O76616: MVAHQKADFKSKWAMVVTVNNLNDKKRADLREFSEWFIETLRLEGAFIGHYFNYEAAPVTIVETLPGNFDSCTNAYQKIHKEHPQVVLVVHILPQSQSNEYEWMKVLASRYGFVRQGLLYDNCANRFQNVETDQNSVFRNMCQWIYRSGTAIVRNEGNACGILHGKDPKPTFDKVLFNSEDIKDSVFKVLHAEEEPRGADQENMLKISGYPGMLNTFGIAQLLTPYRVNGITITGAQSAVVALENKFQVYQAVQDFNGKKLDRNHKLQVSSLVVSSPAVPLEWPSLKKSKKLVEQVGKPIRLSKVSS
# No constants are given. Whether binding was seen depends on the method and setting.
# Molecular target: T1, ERH-2 (C. elegans) (UniProt Q20057)
# T1 sequence: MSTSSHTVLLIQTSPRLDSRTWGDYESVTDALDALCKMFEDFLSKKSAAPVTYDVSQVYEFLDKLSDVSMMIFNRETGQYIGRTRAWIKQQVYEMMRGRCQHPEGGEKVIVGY
# Experiment: SEC; ERH-2 and TOFU-6^RRM mixed with PICS-1 5-282, PICS-1 5-200 or PICS-1 ΔEBM; Superose 6 Increase 10/300 GL; 20 mM Tris pH 8.5, 200 mM NaCl; peaks analysed by SDS-PAGE; both purified
substance,measurement,value
PICS-1^5-282 with EBM deleted (PICS-1^ΔEBM) (from UniProt O76616) (domain or fragment),binding,no binding
